This is one part of the list.
Compound: Cc1sc2c(c1C)C(c1ccc(Cl)cc1)=N[C@@H](CC(=O)OC(C)(C)C)c1nnc(C)n1-2
Test: log2 fold change, soluble protein after heating vs DMSO (PISA); higher = thermal stabilisation; K562 lysate, 10 uM; active = over 0.2 and 3.5 SD of the protein, either way, in both replicates (recomputed)
Method in brief: (§1)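 Thermal stability, expressed as log-two fold change relative to solvent controls, is given from duplicates. Crude K562 extract in PBS pH 7.4 with 1 mM MgCl2, at 1 mg/mL protein, was treated with 10 μM compound for 30 min and heated in aliquots for 3 min across 48°C-58°C. After pooling, adjustment to 0.5% NP-40 at 4°C and centrifugation at 21,000xg for 90 min, supernatant protein was measured by TMTpro 16plex LC-MS/MS with channel sums equalised.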

By UniProt entry, the sequences of proteins in these tests, tags left out. Where a name states a change or a piece, a line headed by the entry shows the natural chain unless it says otherwise.
UniProt Q8IX04: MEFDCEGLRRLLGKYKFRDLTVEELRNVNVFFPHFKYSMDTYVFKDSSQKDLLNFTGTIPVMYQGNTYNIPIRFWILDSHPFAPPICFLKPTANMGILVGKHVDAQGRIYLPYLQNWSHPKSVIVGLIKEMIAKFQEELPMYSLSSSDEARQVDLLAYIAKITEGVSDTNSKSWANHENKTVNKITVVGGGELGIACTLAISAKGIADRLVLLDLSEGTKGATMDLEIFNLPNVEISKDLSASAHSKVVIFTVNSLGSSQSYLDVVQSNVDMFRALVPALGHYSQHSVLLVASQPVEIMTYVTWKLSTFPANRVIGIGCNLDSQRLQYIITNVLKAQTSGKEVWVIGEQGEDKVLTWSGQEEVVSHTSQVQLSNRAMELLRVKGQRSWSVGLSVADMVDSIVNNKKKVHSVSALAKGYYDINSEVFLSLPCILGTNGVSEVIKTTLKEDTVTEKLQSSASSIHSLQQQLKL
UniProt P31930: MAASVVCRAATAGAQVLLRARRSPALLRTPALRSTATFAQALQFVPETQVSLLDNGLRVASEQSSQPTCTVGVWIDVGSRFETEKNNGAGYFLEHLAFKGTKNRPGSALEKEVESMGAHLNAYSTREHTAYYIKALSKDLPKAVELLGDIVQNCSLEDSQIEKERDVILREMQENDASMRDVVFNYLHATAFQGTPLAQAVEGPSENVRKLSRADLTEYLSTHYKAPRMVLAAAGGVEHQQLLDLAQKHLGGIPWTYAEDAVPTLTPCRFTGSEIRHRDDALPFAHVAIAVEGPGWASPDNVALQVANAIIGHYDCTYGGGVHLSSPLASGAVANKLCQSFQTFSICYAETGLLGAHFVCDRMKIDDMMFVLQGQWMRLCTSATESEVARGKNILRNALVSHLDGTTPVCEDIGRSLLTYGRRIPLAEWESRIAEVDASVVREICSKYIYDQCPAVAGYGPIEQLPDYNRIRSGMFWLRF
UniProt Q9BZM5, whole entry, looked up: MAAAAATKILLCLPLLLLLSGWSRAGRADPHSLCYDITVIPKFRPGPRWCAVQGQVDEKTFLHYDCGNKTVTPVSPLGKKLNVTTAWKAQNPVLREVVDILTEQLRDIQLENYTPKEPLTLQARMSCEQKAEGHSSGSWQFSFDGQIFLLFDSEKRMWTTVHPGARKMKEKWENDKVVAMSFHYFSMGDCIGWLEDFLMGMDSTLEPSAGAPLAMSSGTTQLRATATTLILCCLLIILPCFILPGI
UniProt Q9NWZ5: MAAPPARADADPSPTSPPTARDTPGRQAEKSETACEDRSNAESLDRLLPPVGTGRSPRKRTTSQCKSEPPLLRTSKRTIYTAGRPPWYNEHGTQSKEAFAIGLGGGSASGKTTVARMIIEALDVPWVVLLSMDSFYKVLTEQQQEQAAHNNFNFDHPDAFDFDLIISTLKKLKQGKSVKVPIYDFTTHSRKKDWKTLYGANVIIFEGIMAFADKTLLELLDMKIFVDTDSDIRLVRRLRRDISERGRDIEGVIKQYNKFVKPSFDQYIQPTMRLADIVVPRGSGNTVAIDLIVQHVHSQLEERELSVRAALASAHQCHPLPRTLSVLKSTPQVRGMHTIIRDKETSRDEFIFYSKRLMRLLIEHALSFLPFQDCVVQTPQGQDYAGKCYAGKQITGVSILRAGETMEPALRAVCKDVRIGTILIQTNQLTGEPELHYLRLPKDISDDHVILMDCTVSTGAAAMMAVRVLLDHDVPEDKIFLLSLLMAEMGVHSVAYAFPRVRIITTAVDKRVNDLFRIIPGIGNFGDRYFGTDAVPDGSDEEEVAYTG
UniProt Q9NYH9: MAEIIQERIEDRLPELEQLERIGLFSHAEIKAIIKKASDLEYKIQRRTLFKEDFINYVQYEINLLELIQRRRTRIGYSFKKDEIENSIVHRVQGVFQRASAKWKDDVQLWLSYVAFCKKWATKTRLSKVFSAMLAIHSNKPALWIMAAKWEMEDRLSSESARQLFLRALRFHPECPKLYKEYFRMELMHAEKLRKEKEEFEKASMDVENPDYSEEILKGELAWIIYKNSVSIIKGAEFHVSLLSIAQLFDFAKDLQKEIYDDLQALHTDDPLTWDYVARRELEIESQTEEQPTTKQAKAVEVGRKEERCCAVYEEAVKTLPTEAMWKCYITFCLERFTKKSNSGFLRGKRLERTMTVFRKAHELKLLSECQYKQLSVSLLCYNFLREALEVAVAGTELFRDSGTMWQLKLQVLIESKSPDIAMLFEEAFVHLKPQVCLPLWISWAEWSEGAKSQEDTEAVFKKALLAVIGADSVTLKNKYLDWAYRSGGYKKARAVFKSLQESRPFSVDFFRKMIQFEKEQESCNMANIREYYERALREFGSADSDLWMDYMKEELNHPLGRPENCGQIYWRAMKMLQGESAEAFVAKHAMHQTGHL
UniProt P47985: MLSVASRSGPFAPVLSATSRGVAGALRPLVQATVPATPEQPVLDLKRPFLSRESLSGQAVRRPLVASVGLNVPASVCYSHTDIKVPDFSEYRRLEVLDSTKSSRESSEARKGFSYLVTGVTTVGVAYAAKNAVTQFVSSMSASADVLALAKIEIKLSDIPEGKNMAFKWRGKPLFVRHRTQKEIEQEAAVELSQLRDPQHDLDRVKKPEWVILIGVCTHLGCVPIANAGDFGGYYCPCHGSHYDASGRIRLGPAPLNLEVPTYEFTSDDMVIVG
UniProt P21796, whole entry, looked up: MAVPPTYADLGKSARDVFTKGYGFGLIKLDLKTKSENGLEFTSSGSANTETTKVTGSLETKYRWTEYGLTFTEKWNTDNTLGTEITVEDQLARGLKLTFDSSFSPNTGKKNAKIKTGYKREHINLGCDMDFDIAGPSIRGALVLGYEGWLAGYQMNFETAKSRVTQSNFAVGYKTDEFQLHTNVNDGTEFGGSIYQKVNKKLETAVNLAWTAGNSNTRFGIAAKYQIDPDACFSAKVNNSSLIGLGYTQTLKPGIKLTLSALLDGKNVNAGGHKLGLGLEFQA
UniProt Q9BV40: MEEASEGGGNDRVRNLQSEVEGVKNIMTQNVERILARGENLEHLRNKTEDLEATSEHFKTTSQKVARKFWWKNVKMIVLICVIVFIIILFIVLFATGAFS
UniProt Q9P0L0: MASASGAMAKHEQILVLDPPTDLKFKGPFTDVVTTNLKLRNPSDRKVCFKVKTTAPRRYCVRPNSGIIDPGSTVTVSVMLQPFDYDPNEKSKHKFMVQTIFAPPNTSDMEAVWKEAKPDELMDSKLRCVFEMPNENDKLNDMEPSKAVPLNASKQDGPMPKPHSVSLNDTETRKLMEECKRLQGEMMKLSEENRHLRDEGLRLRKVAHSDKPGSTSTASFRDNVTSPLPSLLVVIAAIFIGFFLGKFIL
UniProt Q96RL1: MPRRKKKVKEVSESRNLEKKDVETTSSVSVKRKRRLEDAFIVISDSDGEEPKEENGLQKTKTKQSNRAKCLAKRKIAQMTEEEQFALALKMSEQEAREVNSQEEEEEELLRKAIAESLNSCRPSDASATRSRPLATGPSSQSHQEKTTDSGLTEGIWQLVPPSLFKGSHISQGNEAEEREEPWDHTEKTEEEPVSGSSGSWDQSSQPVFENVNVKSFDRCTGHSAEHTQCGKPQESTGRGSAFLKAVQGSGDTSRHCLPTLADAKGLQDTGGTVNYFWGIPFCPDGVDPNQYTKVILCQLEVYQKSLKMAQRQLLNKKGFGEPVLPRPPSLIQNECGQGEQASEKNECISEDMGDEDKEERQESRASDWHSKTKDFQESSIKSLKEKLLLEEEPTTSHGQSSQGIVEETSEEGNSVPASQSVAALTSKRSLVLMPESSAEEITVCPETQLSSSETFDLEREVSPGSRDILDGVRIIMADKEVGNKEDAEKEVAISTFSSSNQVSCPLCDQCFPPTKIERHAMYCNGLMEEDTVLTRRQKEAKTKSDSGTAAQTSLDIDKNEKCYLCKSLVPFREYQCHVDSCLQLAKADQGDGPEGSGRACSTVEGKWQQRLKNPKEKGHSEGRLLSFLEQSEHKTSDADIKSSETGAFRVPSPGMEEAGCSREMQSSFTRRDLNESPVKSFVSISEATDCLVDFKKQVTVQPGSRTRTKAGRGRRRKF
UniProt Q92900: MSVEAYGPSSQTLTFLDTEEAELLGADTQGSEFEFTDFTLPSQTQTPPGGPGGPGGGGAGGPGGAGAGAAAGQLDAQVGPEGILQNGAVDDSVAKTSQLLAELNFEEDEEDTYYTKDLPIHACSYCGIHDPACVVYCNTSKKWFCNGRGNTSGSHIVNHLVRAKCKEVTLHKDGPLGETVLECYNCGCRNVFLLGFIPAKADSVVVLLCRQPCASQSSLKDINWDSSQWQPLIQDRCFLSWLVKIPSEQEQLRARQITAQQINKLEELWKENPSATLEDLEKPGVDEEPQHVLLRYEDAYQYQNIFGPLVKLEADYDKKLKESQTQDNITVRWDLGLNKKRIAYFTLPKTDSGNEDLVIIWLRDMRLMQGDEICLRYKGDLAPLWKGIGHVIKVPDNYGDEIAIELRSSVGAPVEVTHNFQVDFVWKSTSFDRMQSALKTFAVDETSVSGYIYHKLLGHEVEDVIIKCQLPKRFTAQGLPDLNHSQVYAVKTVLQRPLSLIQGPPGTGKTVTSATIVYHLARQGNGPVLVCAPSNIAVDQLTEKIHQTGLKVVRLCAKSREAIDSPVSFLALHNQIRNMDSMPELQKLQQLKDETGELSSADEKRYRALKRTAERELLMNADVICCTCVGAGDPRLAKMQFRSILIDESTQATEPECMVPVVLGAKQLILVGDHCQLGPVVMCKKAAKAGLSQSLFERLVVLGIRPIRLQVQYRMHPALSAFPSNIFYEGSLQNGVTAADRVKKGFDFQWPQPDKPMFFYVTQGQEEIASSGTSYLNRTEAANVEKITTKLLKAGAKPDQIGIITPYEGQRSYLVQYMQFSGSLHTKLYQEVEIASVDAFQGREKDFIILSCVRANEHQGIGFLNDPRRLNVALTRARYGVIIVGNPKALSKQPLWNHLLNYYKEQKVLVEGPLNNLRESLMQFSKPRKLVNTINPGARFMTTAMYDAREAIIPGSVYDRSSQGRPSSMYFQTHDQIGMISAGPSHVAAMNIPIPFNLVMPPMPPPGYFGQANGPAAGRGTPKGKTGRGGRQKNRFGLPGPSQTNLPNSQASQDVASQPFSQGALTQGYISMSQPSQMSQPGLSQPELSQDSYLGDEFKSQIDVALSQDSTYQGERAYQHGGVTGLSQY
UniProt O14949: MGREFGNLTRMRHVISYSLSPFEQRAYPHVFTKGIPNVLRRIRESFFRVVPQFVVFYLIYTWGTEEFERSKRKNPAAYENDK
UniProt P61758, whole entry, looked up: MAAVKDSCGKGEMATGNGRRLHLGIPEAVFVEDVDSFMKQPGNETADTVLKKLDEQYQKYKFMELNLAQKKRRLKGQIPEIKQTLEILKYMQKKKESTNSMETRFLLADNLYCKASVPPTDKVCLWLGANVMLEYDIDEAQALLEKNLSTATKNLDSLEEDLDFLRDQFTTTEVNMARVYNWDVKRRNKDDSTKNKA
UniProt Q15836, whole entry, looked up: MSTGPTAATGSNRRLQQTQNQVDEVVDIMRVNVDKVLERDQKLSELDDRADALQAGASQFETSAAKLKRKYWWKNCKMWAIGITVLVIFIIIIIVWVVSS
UniProt Q9Y3C8: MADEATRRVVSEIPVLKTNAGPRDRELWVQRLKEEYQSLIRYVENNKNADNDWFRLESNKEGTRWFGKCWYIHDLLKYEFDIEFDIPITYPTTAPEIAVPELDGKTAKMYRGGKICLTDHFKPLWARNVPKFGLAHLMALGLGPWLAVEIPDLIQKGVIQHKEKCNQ

Row | Target | log2 fold change
1 | UEVLD (UniProt Q8IX04) | inactive: 0.009
2 | USP9X (UniProt Q93008) | inactive: 0.008
3 | UTP15 (UniProt Q8TED0) | inactive: -0.009
4 | UPRT (UniProt Q96BW1) | inactive: 0.035
5 | UQCRC1 (UniProt P31930) | inactive: 0.017
6 | URI1 (UniProt O94763) | inactive: 0.013
7 | ULBP2 (UniProt Q9BZM5) | inactive: -0.043
8 | UCKL1 (UniProt Q9NWZ5) | inactive: 0.056
9 | USP25 (UniProt Q9UHP3) | inactive: 0.013
10 | UTP6 (UniProt Q9NYH9) | inactive: 0.02
11 | UQCRFS1 (UniProt P47985) | inactive: 0.068
12 | VANGL2 (UniProt Q9ULK5) | inactive: -0.189
13 | VDAC1 (UniProt P21796) | inactive: -0.016
14 | VAMP8 (UniProt Q9BV40) | inactive: -0.019
15 | VDAC2 isoform 2 (UniProt P45880) | inactive: -0.017
16 | USP20 (UniProt Q9Y2K6) | inactive: 0.04

Row | Target | log2 fold change
17 | VAPA isoform 2 (UniProt Q9P0L0) | inactive: -0.035
18 | UIMC1 (UniProt Q96RL1) | inactive: -0.022
19 | UPF1 (UniProt Q92900) | inactive: 0.023
20 | UNC13D (UniProt Q70J99) | inactive: 0.025
21 | UQCRQ (UniProt O14949) | inactive: 0.033
22 | VBP1 (UniProt P61758) | inactive: -0.018
23 | VAT1 (UniProt Q99536) | inactive: -0.022
24 | VAMP3 (UniProt Q15836) | inactive: 0.04
25 | USP15 (UniProt Q9Y4E8) | inactive: 0.016
26 | USP48 (UniProt Q86UV5) | inactive: 0.098
27 | VASP (UniProt P50552) | inactive: -0.052
28 | UQCC1 (UniProt Q9NVA1) | inactive: 0.011
29 | UFC1 (UniProt Q9Y3C8) | inactive: -0.001
30 | UCK2 (UniProt Q9BZX2) | inactive: 0.021
31 | UGDH (UniProt O60701) | inactive: -0.056

Compound: c1ccc([C@@H]2C[C@H]2NC2CCNCC2)cc1
Test: as above
Method in brief: as §1

Row | Target | log2 fold change
32 | UEVLD (UniProt Q8IX04) | inactive: -0.012
33 | USP9X (UniProt Q93008) | inactive: -0.001
34 | UTP15 (UniProt Q8TED0) | inactive: 0.011
35 | UPRT (UniProt Q96BW1) | inactive: 0.027
36 | VEZT (UniProt F8W8C2) | inactive: 0.058
37 | UQCRC1 (UniProt P31930) | inactive: -0.035
38 | URI1 (UniProt O94763) | inactive: 0.02
39 | ULBP2 (UniProt Q9BZM5) | inactive: -0.089
40 | UCKL1 (UniProt Q9NWZ5) | inactive: -0.034
41 | USP25 (UniProt Q9UHP3) | inactive: 0.026
42 | UTP6 (UniProt Q9NYH9) | inactive: 0.108
43 | UQCRFS1 (UniProt P47985) | inactive: 0.032
44 | VANGL2 (UniProt Q9ULK5) | inactive: -0.093
45 | VDAC1 (UniProt P21796) | inactive: 0.023
46 | VAMP8 (UniProt Q9BV40) | inactive: -0.007
47 | VDAC2 isoform 2 (UniProt P45880) | inactive: -0.01

Row | Target | log2 fold change
48 | VAPA isoform 2 (UniProt Q9P0L0) | inactive: -0.13
49 | UIMC1 (UniProt Q96RL1) | inactive: -0.068
50 | UPF1 (UniProt Q92900) | inactive: -0.01
51 | UNC13D (UniProt Q70J99) | inactive: 0.024
52 | UQCRQ (UniProt O14949) | inactive: -0.012
53 | VBP1 (UniProt P61758) | inactive: 0.016
54 | VAT1 (UniProt Q99536) | inactive: -0.006
55 | VAMP3 (UniProt Q15836) | inactive: -0.027
56 | USP15 (UniProt Q9Y4E8) | inactive: 0.014
57 | USP48 (UniProt Q86UV5) | inactive: -0.187
58 | VASP (UniProt P50552) | inactive: 0.017
59 | UQCC1 (UniProt Q9NVA1) | inactive: 0.017
60 | UFC1 (UniProt Q9Y3C8) | inactive: 0
61 | UCK2 (UniProt Q9BZX2) | inactive: -0.05
62 | UGDH (UniProt O60701) | inactive: 0.026

— the supplement of paper PMC10849652
